In patent publication US9354230B2, “Methods and apparatus for conducting multiple measurements on a sample” (MESO SCALE TECHNOLOGIES, LLC., priority 2001, dated 2016):
At least one structure is not confirmed: it was looked up by name or label, or the drawing left a doubt.

Tests used:
[1] = target: T1, HIV Reverse Transcriptase (RT) RNA-dependent DNA polymerase (RDDP) activity (Human immunodeficiency virus type 1 group M subtype B, UniProt P04585); assay: ECL assay of HIV RT RDDP activity in one well of an MDMW Plate; type: biochemical; settings: varying amounts of inhibitor; FIG. 13A
T1 construct: HIV Reverse Transcriptase (RT), an enzyme with both a RNA-dependent DNA polymerase (RDDP) activity and an RNAse H activity

[2] = target: T2, HIV Reverse Transcriptase (RT) RNAse H activity (Human immunodeficiency virus type 1 group M subtype B, UniProt P04585); assay: ECL assay of HIV RT RNAse H activity in one well of an MDMW Plate; type: biochemical; settings: varying amounts of inhibitor; FIG. 13B
T2 construct: HIV Reverse Transcriptase (RT), an enzyme with both a RNA-dependent DNA polymerase (RDDP) activity and an RNAse H activity

O=C(O)C1=CC(=C(c2ccc(O)c(C(=O)O)c2)c2ccc(O)c(C(=O)O)c2)C=CC1=O [aurintricarboxylic acid]
inhibition of RDDP activity [1]: inhibits
inhibition of RNAse H activity [2]: inhibits
